## Percent effect of library compounds

Chains of the proteins cited; added tags and fusions are not shown. Residues count along the entry.
UniProt A4I591, 1-473: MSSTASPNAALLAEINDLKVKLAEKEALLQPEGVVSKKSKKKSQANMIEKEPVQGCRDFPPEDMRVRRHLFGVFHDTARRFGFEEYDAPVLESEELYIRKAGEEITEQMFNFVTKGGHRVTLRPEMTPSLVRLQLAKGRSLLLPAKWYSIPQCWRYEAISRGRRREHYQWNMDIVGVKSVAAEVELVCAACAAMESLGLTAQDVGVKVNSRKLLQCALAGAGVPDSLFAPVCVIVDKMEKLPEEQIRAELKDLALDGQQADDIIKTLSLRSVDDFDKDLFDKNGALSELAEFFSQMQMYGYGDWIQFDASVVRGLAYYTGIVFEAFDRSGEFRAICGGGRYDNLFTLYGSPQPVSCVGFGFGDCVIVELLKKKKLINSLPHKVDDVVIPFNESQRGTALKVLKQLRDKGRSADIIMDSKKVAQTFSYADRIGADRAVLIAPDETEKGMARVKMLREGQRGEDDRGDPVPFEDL
UniProt P9WNZ1, whole entry: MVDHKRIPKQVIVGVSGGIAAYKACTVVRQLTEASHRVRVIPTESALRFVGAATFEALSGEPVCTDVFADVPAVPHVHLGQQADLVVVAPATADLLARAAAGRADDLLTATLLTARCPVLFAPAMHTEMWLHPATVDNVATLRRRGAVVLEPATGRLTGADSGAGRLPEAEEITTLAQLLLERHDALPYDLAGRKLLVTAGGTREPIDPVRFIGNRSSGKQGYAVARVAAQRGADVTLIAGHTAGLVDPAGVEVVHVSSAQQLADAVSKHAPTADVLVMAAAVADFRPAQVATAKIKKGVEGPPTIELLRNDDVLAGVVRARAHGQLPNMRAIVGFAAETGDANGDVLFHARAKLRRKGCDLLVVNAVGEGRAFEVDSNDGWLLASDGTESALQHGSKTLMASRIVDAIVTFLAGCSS
UniProt P9WFT3, whole entry: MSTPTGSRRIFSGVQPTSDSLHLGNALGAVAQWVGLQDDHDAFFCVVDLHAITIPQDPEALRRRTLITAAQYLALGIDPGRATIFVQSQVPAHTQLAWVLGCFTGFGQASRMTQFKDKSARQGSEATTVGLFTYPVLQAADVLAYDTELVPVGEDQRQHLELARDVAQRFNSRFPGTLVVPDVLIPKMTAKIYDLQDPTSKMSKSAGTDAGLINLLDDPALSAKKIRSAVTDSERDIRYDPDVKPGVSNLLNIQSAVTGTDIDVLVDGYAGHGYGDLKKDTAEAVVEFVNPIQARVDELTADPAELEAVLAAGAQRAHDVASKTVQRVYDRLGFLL

From ChEMBL document CHEMBL3988442, “University of Dundee, Small-Polar-MMV Screening Library” (2021).

A: 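Histidine-tRNA ligase, Leishmania infantum (UniProt A4I591). Enzyme assay of histidyl-tRNA synthetase; the read-out is not stated. Concentration: 30 µM. The record gives no direction; compounds that gave an IC50 in retests scored well above the rest, so higher reads as stronger inhibition. The assay is labelled LdHisRS but filed under L. infantum. Of about 69,000 compounds tested this way, about 410 (0.6%) reached 50% or more in at least one test.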
B: 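Coenzyme A biosynthesis protein CoaBC, Mycobacterium tuberculosis (UniProt P9WNZ1). Enzyme assay of CoaBC with a phosphate dye (Biomol Green) read at 650 nm. Concentration: 30 µM. Direction is inferred from only a few compounds that gave an IC50; most scored high, so higher reads as stronger inhibition. Most strong results did not repeat in a second test. Of about 67,000 compounds tested this way, about 40 (0.06%) reached 50% or more in at least one test.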
C: 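Tryptophan-tRNA ligase, Mycobacterium tuberculosis (UniProt P9WFT3). Enzyme assay of tryptophanyl-tRNA synthetase; the read-out is not stated. Concentration: 10 µM. Higher most likely means stronger inhibition; the record gives no direction and few retests gave an IC50. Of about 65,000 compounds tested this way, about 64 (0.098%) reached 50% or more in at least one test.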

Each number is a percent effect as filed. The controls that fix the scale are not given in the record; negative values are as filed. This is an unselected part of the compounds tested. A dash means the value is not listed here; it may have been measured.

compound	A	B	C
CC(=O)NCCCNCc1ccc(Cl)c2cccnc12	10.45	-5.221	-0.8189
Cc1cc(CN2CCN(C(=O)NC(C)Cn3cccn3)CC2)no1 (stereo not drawn)	19.64	3.676	-4.08
COc1ccc(CN2CCC3(CC2)NC(=O)CC3c2ccncc2)cc1 (stereo not drawn)	5.882	0.3861	-1.055
Cc1ccsc1S(=O)(=O)N1CCc2c(c(C(=O)O)nn2CC2CC2)C1	11.67	4.925	-4.669
CCc1nc(CN2CCN(c3ncnc4cc(F)ccc34)CC2)no1	-0.9434	0.9091	0.7457
OCCN(Cc1cccnc1)c1ccc(Br)cn1	9.524	-1.297	0.9372
O=C1CC[C@H](C(=O)N(Cc2cccc(Br)c2)C2CC2)N1	17.74	1.572	5.326
CC(=O)N1CCN(c2cc(N(C)C)cnn2)CC1	0	-0.2114	-3.116
Cc1noc(C)c1S(=O)(=O)N(C)Cc1nn(C)c(Cl)c1Cl	17.65	6.517	7.235
Cc1cnn(CC2CN(CCCS(=O)(=O)N(C)C)CCO2)c1 (stereo not drawn)	6.061	5.72	-1.754
Cn1cc(CCN2CCOC(CNc3cccnn3)C2)cn1 (stereo not drawn)	11.54	-0.4779	65.99
Cn1ccnc1CN1CCC2(CC1)COCCN(c1ncccn1)C2	23.08	4.727	-
COc1cc(NC(=O)NCCO)ccc1N1CCOC1=O	8	7.851	-0.677
O=C1CCC2(CCCN(Cc3nnc(C4CC4)o3)C2)CN1CCO (stereo not drawn)	15.04	-4.034	-0.9213
O=C(c1cnccn1)N1CCn2cnc(COCC3CC3)c2C1	2.655	-1.895	13.47
CN(C)Cc1cncc2c1CCN(CC(=O)N(C)C)C2	-1.98	-2.599	-
CC(C)c1n[nH]c(C2CN(C(=O)c3ncoc3C(C)C)CCO2)n1 (stereo not drawn)	6.14	4.042	0.2946
COc1cccc(CNC(=O)c2cccnc2SC(C)C)c1	5.263	1.863	-1.467
CCN1CCCC1CN(CCN(C)C)S(=O)(=O)c1cccc(C#N)c1 (stereo not drawn)	17.31	-29.21	4.633
Cc1cc(=O)[nH]c(SCC(=O)N(C)CC2Cc3ccccc3CN2C)n1 (stereo not drawn)	15.09	-7.048	-0.1676
CN1C[C@@H](F)[C@@H](OCc2nc3ccccc3n2C)C1	11.11	2.032	-5.346
COCC(=O)N1CCC(c2cc(-c3ccc(N)nc3)cc(C)n2)CC1	14.18	12.12	22.72
CS(=O)(=O)CCC(=O)NC(c1ccc(F)cc1)C(F)(F)F (stereo not drawn)	12.7	1.988	2.642
CCCN1CCC(NN2CCN(C)CC2)CC1	2.151	-25.72	-0.7042
CCOCC1CN(Cc2ccco2)Cc2ccnn2C1 (stereo not drawn)	17.11	5.14	-4.673
CCN1CC[C@]2(CN(Cc3nccs3)C[C@H]2c2ccccc2)C1=O	2.632	2.648	-2.885
OCC(O)CSCc1cn(-c2ccc(Cl)c(Cl)c2)nn1 (stereo not drawn)	15.79	10.08	-3.269
COc1nn(C)c2c1CCCN(S(=O)(=O)c1cccs1)C2	1.316	7.944	3.314
CCN(Cc1ccc2c(c1)OCO2)C(=O)NCc1nc(C)cs1	11.57	7.559	-0.5696
O=C(NC[C@H]1OC[C@@H](NCc2ccccc2F)[C@@H]1O)Nc1ccccc1	13.89	2.581	-0.8364
CCCc1nnc(NC(=O)Cc2c(C)nc(C)[nH]c2=O)s1	16.51	5.627	-5.512
CN(C)c1ncnc2c1CCN(c1cc(C(F)(F)F)ncn1)CC2	25	-0.3226	0.2788
CC(Oc1ccccc1)C(=O)N1CCCN(Cc2nccn2C)CC1 (stereo not drawn)	0.8696	4.453	-3.45
CC(Cc1ccccc1F)C(=O)Nc1cccc(OCC(N)=O)c1 (stereo not drawn)	24.1	-2.913	-2.353
CC(C)CNC(=O)c1cn(C(C)C)cc2c(=O)[nH]nc1-2	17.39	0.4843	-0.8223
COc1cc2ncn(Cc3ncc[nH]3)c(=O)c2cc1OC	18.07	3.137	0.000014
O=C1CC(c2cccs2)c2cnn(C3CCCC3)c2N1 (stereo not drawn)	-6.796	-7.143	-2.131

Repeated from the top, 3 entries:

CC(=O)NCCCNCc1ccc(Cl)c2cccnc12 gave A: 10.45%; B: -5.221%; C: -0.8189%.
Cc1cc(CN2CCN(C(=O)NC(C)Cn3cccn3)CC2)no1 (stereo not drawn) gave A: 19.64%; B: 3.676%; C: -4.08%.
COc1ccc(CN2CCC3(CC2)NC(=O)CC3c2ccncc2)cc1 (stereo not drawn) gave A: 5.882%; B: 0.3861%; C: -1.055%.